Assay results published in patent EP4814014A1, “BINDING MOLECULE AND ANTIBODY-DRUG CONJUGATE AND USE THEREOF” (priority 2023, dated 2025).
No constants are given. Whether binding was seen depends on the method and setting. Some results given as binding are weak or reduced against the parent protein; the word gives no strength. Where a sequence is shown, tags or fusion partners need not be part of it.

Sequences of proteins named here, by UniProt entry; tags and fusion partners are left off. Residues count along the entry.
UniProt P08581, residues 25-932: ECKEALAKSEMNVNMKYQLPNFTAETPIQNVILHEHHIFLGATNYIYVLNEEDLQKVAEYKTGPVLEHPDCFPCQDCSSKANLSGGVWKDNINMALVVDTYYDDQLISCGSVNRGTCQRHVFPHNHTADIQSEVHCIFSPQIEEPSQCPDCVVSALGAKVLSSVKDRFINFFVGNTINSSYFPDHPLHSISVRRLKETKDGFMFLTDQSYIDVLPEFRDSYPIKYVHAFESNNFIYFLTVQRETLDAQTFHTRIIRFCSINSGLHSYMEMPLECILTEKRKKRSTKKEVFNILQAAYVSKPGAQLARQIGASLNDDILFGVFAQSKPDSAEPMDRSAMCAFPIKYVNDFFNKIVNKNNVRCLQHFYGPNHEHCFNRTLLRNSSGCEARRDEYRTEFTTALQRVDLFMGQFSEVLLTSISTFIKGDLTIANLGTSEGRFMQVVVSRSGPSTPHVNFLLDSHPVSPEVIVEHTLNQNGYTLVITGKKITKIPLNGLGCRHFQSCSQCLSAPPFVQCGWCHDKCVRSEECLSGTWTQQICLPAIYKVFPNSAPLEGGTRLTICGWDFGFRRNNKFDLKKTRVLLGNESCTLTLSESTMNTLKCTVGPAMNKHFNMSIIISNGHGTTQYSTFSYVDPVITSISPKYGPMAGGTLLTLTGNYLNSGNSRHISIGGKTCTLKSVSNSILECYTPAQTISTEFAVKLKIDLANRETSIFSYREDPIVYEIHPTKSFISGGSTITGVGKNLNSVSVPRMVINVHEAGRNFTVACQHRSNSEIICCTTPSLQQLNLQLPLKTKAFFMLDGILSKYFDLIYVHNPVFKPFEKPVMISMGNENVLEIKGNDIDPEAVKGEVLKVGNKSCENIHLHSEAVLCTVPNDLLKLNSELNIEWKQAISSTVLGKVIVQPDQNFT

Assays:
Human cMet antigen [1] = biological target: T1, Human cMet antigen (human, UniProt P08581 25-932); test: SPR, V-n9A2 on CM5 chip, human cMet antigen 300 nM injected
T1 construct: treated as one molecule; also called Human cMet-His antigen

Human cMet antigen [2] = biological target: T1, Human cMet antigen; test: ELISA, antigen coated, VHH-Fc titrated
Human cMet antigen [3] = biological target: T1, Human cMet antigen; test: SPR, V-n7A12 injected over cMet held by V-n9A2

| Binder | binding (Human cMet antigen [1]) | binding (Human cMet antigen [2]) | binding (Human cMet antigen [3]) |
| --- | --- | --- | --- |
| V-n9A2 anti-cMet VHH-Fc (Fc fusion, not shown: a dimerising Fc or GST, Bivalent VHH-Fc) QSQLAESGGGLVQSGGSLGLSCVASGFTISRSIMSWYRQPPGKERDWVASIGSAGNTNYVDSVKGRFTISRDVAKNTVYLQMNSLKPEDTAVYYCKTTLAVSFSEYWGQGTQVTVSS | binds | binds |  |
| V-n7A12 anti-cMet VHH-Fc (Fc fusion, not shown: a dimerising Fc or GST, Bivalent VHH-Fc) EVQLVESGGGLVQAGGSLRLSCVASGNIFSSNHMGWFRQAPGKQREFIAYITTREITNYADSVKGRFTISRDNTKNTVYLQMNVLKPEDTAVYYCIADQSREIRRSWGQGTQVTVSS |  | binds | binds |
